{"source": "patent US20230181579A1", "about": "“SELECTIVE TREATMENT OF CANCERS HAVING HISTONE H3 MUTATIONS OR ABERRAN TLEVELS OF DNA OR HISTONE METHYLATION, ACETYLATION OR DEFECTS IN HOMOLOGOUS RECOMBINATION” (Florida State University Research Foundation, Inc., priority 2020, published 2023)", "test_system": "H3.3 K27M mutant DIPG cells", "experiment": "Survival assay, patient derived H3.3 K27M mutant DIPG cells", "type": "cell-based, human", "conditions": "combined with ionizing radiation; concentration not given", "procedure": "Survival assays. To determine the sensitivity of cells to NHEJ inhibitors, IDH inhibitors, HATi or HDACi in combination with ionizing radiation, 25,000 cells were seeded per well in triplicate in 12-well cell culture plates in the presence of the indicated NHEJ inhibitors. Following reattachment of the cells to the bottom of the culture plate, they were irradiated with the indicated doses of X-rays using an X-Rad 320 irradiator (Precision X-Ray). Accurate X-ray dose delivery was determined using UNIDOS E dosimeter. Surviving cells were measured 7 days post-irradiation by first dissociating the cells with trypsin and then counting them on a Z3 Coulter counter (Beckman-Coulter). Experiments were typically repeated at least 3 times."}
{"smiles": "O=C(CCCCCCC(=O)Nc1ccccc1)NO", "note": "[Vorinostat]", "values": [{"measurement": "survival of H3 K27M mutant cancer cells, inhibitor with ionizing radiation", "value": "synergistic with ionizing radiation"}]}
